The record followed here is article PMC10163288.

The list shows a part of the results.

To fix the notation:
B1: il2ra_site1_3nfp_normal_mot_eb5a5eebac1e5153f932cc6c3f4b2787_0001_af2_000000065_0001_18_33_H_._HHH_b2_05299_0001_0000300021_0000001_0 (protein)
chain: SSSSSDEEKREEARELIELARHIEDPEEASEVLEEAYRLLAEVQDRELLEELYRLMREIVSSSSS
B2: il2ra_site2_2erj_sap_23_mot_9983d6beee032e3819f467d055548630_0001_1_000000194_0001_16_32_H_._bee18c9904f98e661b1e98a71a1d884a_0001_af2_0001_0000200025_0000001_0 … (protein)
chain: SSSSNLSEEASELVKRAMEDPEFREEARELLEELLERAEERGDEEAAEVIRAALELLEEGSSSSS
B3: il2ra_site1_3nfp_normal_mot_HHH_b1_05931_000000015_0001_42_57_H_._c0fd2ee23bf7eac90f0defb3b9babf8d_0001_0001_0000600031_0000001_0_af2pred_0001_af2pred (protein)
chain: NEAARILKEVARRGLLSPEALKAIYELAREVLREGDPELERLFREIIELLKRNVEEAEELAEKLR
B4: il2ra_site1_3nfp_sap_17_mot_HHH_b1_08597_000000017_0001_1_18_H_._4428453eb85d3cbdb794fa6b82d21c19_0001_0001_0000100002_0000001_0_0001 (protein)
chain: SSSSSDAFKRALELARRIMELLKEGNPEEAEELIRELEEMAKELNDPAAEWAVEQLERSLSSSSS
B5: il2ra_site2_3nfp_sap_28_mot_HHH_b2_05717_000000156_0001_42_56_H_._HHH_b2_05335_0001_0000100003_0000001_0_0001_af2pred_0001_1_af2pred_swapped (protein)
chain: SSSSSTEEEREEVEELLERAKEITDPEERQELLHRASRIAFEANDEELIELVAEVYVKLSSSSSS
B6: il2ra_site1_2b5i_sap_16_mot_HHH_b1_02182_000000065_0001_18_33_H_._ac710d00df0a15e663fb636f306744b3_0001_1_af2_0001_0000100004_0000001_0_0001 (protein)
chain: SSSSSSDAEEEVKELLEEARQIDDPEENEEVLFEALHLAWRAGNPELRELVEKVAKEISSSSSSS
B7: il2ra_site1_2b5i_normal_mot_HHH_b1_01419_af2_000000080_0001_42_53_H_._HHH_b1_02124_af2_0001_0000300020_0000001_0_af2pred_dldesign_0_af2pred (protein)
chain: SSSSDEKEDEVYDLAQEALRLHLAGKKEEALELLEKALELAKELGNEKLVKEIQDLIERLKSSSS
B8: il2ra_site2_2erj_normal_mot_HHH_b1_08609_af2_000000264_0001_43_56_H_._HHH_b1_00136_0001_0000100011_0000001_0 (protein)
chain: SSSSSVEEAERLLRFVFELASKLGLSLEQAEELIELLQELLERGVSEEEAEEELEKLAEELSSSS
B9: il2ra_site1_2b5i_normal_mot_f5ff40796168375b462bec8614a1db4a_0001_1_000000138_0001_53_65_H_._HHH_b2_04276_0001_0000100001_0000001_0_af2pred_dldesign_0_af2pred (protein)
chain: SSSSSSAKELVEELIEEARRLKEEGKPELARKLLKLARRIAKKHNDEELVAKVERVEAELSSSSS
B10: il2ra_site1_2b5i_sap_21_mot_HHH_b1_07473_af2_000000006_0001_1_20_H_._HHH_b2_06391_af2_0001_0000500030_0000001_0_0001_af2pred_dldesign_0_af2pred (protein)
chain: SSSSDPALRAWVDEALRRARELKEAGKRREALELLEEAYKKASAVDDEENIAKIEELAKELSSSS
B11: il2ra_site2_2erj_normal_mot_ems_3hC_1315_af2_000000245_0001_45_63_H_._HHH_b1_01060_0001_0000200024_0000001_0 (protein)
chain: SSSSDVEERLEEFIQREAERLNDPYLLRFLRRLIEYALKAGASEEEIERALEETIRILEEQSSSS
B12: il2ra_site1_2b5i_normal_mot_HHH_b2_04910_000000118_0001_1_19_H_._HHH_b2_06515_0001_0000200018_0000001_0_af2pred_dldesign_0_af2pred (protein)
chain: SSSSDPYAEILELFKKAEELFKAGKEEEAKKVLEEAIELAKEAGLPALVRFLEAALEAVESSSSS
B13: il2ra_site2_3nfp_sap_21_mot_HHH_b2_05281_000000198_0001_39_56_H_._8592ef0b0fd44ae0c6739e17f45934d2_0001_af2_0001_0000400023_0000001_0_0001_af2pred_0001_af2pred (protein)
chain: SSSSSEDEEEVEKLLREAEEARKKNPTLALQLLAEALLIAIRTNNEELREEVLKVIKELLESSSS
B14: il2ra_site1_3nfp_normal_mot_HHH_b1_07644_af2_000000110_0001_40_57_H_._91f0cba056638229c376853e1afea4e2_0001_1_0001_0000500039_0000001_0_af2pred_0001_af2pred_1 (protein)
chain: STVERVIEDLRRLGDPRAEELAEILEELLRRGVPPREVLEEAAKVAEELGDPIAAELLRRAARLL
B15: il2ra_site1_3nfp_sap_20_mot_ems_3hC_501_000000016_0001_1_20_H_._HHH_b2_04541_af2_0001_0000200022_0000001_1_0001 (protein)
chain: DDRIAKRIDELLRKIPDPELLQALWKLLEIFIRDPERAIEELRELVKEFGDPLAEEILELLEEAK
B16: il2ra_site2_2erj_sap_18_mot_HHH_b1_04373_af2_000000118_0001_18_33_H_._HHH_b2_03515_0001_0000500015_0000001_0_0001 (protein)
chain: SSSSLEERIEELYELIEELLKRGDVQRVNEVLTEILRLAEEIGDPEVIRLAWEALRLSVERHSSS
B17: il2ra_site1_3nfp_sap_14_mot_7e5d6dae1157c95132ff0874b0fd9e6b_0001_1_af2_000000004_0001_1_12_H_._HHH_b2_06908_0001_0000800038_0000001_0_0001 (protein)
chain: SKVILYAIEQFKKDGIPPEKIVEWLLEAAKAIGLPPEELEKMLEELLERTGDPLLERLLELLEER
B18: il2ra_site1_2b5i_sap_10_mot_HHH_b1_01419_af2_000000080_0001_42_53_H_._HHH_b2_00817_0001_0000100005_0000001_0_0001_af2pred_dldesign_0_af2pred (protein)
chain: SSSSDEIYDLYRKALELYKAGKYEEALELLKKAKKLAKEKNDEKIIKDLDYLIELVEKSLSSSSS
B19: il2ra_site2_3nfp_normal_mot_HHH_b1_04762_000000120_0001_42_54_H_._HHH_b1_01332_af2_0001_0000400017_0000001_0 (protein)
chain: SSSSSDAEEYLRAALLLAREAIEQGDEEQAEKLLRLIRKLAEDAKDEEALREAEELLRLVGSSSS

The target of this experiment is il2ra, P01589. As to the kind of experiment: yeast display titration.
Consider B1, for which the “apparent Kd” value was “inactive: no binding seen”.
As for B2, the “apparent Kd” value is “inactive: no binding seen”.
B3: the “apparent Kd” value was “inactive: no binding seen”.
In the case of B4 it was “inactive: no binding seen”; in that of B5, “inactive: no binding seen”; in that of B6, “inactive: no binding seen”.
As for B7, the “apparent Kd” value was “inactive: no binding seen”.
In the case of B8 it was “inactive: no binding seen”.
In the case of B9 it was “inactive: no binding seen”; in that of B10, “inactive: no binding seen”; in that of B11, “inactive: no binding seen”.
Next, B12: “inactive: no binding seen”.
Turning to B13, the “apparent Kd” value was “inactive: no binding seen”.
Next, B14: “inactive: no binding seen”.
Next, B15: “inactive: no binding seen”; B16: “inactive: no binding seen”; B17: “inactive: no binding seen”.
In the case of B18 it was “inactive: no binding seen”; in that of B19, “inactive: no binding seen”.
